# Experimental data published in the supplement of paper PMC11732987, “Enantioselective OTUD7B fragment discovery through chemoproteomics screening and high-throughput optimisation” (Communications Chemistry, 2025).
# By UniProt entry, the sequences of proteins in these tests, tags left out. Where a name states a change or a piece, a line headed by the entry shows the natural chain unless it says otherwise. Residues count along the entry.
# UniProt Q5JTZ9, 902-922: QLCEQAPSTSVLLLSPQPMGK
# UniProt Q9BV23: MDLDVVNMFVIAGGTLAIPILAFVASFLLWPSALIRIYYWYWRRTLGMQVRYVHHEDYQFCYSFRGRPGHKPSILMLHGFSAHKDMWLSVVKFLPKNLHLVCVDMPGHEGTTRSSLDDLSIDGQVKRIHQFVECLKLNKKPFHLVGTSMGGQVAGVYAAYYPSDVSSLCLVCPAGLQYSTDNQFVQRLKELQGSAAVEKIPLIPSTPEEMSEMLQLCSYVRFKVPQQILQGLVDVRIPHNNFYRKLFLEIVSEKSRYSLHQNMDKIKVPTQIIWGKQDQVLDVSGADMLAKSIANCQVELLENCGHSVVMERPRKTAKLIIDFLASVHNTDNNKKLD
# UniProt P16219, 149-171: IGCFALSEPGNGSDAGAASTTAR
# UniProt Q15057: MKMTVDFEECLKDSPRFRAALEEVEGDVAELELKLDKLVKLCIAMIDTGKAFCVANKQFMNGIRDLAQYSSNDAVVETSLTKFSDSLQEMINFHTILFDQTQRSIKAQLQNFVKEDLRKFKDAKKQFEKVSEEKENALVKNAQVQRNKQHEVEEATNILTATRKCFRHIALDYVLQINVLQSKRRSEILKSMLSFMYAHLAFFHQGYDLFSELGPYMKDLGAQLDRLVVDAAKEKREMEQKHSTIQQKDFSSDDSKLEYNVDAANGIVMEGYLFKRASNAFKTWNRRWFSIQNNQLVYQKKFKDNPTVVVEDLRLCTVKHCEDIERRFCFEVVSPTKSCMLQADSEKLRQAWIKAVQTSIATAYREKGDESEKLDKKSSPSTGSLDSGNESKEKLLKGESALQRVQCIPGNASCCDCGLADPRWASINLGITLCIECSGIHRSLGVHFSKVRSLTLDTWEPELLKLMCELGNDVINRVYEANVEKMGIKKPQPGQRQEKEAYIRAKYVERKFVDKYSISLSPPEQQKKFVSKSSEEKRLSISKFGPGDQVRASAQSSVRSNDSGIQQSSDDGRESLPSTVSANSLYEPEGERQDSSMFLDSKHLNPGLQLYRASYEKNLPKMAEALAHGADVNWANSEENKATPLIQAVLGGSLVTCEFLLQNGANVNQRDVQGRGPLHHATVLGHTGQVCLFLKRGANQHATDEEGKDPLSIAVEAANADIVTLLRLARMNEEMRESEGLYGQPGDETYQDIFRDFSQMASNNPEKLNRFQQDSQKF
# UniProt Q8WTS1, 298-318: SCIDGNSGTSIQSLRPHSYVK
# UniProt P08183: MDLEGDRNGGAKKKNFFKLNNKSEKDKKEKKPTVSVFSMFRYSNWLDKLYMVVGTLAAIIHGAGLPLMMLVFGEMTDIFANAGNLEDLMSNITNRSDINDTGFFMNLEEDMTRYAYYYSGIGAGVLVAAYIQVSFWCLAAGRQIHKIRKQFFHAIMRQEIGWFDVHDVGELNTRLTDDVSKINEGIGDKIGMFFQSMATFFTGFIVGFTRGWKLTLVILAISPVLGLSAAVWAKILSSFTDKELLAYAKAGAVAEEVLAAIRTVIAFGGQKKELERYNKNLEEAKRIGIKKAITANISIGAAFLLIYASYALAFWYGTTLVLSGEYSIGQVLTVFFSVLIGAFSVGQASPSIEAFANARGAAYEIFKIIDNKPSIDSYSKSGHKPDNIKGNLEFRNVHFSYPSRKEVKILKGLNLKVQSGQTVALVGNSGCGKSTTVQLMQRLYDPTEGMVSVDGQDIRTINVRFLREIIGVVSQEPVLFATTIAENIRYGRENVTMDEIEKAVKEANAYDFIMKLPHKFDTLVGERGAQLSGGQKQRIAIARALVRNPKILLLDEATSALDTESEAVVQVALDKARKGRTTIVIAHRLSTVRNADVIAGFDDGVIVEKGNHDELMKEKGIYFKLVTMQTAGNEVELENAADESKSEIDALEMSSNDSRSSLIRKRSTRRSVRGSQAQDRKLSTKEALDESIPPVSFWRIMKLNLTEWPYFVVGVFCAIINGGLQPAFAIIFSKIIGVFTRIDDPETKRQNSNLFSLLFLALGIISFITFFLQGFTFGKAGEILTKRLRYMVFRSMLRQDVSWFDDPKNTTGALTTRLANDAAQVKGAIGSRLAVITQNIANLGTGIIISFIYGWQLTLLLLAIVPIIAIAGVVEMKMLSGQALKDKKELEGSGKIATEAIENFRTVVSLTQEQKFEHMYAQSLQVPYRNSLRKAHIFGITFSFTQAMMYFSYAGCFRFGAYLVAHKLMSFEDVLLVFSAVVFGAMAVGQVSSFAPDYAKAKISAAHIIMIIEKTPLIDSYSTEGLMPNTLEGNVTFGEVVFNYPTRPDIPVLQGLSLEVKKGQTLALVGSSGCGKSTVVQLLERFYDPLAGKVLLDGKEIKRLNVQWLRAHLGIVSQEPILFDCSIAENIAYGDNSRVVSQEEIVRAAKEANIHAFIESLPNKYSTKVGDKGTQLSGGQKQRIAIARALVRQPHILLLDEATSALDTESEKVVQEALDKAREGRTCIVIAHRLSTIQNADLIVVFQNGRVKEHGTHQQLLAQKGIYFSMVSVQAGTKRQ
# UniProt Q13685: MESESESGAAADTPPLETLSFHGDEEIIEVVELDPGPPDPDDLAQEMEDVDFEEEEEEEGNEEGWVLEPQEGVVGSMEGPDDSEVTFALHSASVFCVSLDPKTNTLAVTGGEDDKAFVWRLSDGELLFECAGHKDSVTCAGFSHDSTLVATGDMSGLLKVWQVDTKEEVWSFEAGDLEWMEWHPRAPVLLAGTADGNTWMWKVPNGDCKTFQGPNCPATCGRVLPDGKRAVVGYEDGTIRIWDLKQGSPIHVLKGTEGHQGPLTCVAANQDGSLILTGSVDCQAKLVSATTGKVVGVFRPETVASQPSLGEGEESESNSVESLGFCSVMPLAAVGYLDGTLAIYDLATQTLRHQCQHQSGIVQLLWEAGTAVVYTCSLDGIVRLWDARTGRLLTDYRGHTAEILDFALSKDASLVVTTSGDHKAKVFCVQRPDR
# UniProt P09110, 217-237: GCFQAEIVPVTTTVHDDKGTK
# UniProt P49748: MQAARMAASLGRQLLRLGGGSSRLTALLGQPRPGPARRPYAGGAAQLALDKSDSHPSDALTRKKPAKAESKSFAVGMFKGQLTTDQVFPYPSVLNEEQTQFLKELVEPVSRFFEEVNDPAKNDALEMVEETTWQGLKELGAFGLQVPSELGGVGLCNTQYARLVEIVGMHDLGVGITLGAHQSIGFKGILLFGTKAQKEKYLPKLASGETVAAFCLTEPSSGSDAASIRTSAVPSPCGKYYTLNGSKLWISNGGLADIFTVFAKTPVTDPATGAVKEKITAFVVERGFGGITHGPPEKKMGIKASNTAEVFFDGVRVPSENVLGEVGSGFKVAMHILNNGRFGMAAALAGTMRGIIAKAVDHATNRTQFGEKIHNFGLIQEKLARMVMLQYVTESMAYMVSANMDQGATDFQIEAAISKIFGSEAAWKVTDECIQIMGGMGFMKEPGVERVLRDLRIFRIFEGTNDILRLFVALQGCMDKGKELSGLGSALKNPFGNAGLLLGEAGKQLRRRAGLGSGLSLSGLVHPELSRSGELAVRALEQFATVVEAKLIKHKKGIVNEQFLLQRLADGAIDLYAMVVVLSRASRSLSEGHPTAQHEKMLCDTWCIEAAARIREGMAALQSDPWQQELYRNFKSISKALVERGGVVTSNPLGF
# UniProt Q4L235: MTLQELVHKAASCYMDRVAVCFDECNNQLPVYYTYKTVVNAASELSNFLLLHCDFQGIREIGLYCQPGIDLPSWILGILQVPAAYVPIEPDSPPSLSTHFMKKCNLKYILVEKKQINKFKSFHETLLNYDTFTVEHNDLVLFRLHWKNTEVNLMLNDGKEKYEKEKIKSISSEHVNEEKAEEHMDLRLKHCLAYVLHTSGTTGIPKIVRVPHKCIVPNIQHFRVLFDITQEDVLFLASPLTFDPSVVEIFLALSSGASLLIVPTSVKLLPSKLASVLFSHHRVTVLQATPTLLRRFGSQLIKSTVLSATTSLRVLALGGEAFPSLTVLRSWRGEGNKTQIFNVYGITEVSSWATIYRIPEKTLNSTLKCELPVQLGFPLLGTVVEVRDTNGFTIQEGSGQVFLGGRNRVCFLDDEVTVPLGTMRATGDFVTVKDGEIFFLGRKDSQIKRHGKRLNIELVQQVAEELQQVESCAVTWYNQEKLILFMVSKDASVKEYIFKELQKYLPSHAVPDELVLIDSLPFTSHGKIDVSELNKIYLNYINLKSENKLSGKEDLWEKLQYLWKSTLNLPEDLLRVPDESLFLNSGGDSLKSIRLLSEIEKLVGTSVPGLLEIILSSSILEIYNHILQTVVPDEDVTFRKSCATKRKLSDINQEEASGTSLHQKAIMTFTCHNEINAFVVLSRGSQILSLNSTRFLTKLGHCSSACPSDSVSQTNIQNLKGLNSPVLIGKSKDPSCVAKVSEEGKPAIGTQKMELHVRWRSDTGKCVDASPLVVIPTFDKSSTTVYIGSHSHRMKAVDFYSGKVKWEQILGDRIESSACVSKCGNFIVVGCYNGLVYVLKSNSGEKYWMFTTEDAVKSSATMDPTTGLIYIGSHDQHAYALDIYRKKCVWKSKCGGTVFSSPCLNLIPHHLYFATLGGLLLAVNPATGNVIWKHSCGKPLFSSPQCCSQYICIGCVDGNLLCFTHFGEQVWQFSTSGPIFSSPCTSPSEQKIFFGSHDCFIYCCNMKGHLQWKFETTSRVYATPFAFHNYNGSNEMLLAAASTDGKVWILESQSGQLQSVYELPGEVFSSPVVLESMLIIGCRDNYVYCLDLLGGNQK
# UniProt Q9UKU7: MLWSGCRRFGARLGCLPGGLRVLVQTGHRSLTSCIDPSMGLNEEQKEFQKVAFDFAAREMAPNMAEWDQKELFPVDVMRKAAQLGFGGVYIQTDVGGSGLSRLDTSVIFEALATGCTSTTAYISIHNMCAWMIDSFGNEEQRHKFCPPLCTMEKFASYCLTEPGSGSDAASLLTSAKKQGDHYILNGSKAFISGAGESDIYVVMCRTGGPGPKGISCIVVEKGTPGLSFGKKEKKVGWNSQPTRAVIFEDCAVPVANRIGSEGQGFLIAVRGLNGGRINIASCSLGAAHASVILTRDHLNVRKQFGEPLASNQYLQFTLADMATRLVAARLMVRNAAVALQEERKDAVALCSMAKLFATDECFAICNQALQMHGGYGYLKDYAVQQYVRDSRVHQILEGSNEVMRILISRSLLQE
# UniProt Q9UG63: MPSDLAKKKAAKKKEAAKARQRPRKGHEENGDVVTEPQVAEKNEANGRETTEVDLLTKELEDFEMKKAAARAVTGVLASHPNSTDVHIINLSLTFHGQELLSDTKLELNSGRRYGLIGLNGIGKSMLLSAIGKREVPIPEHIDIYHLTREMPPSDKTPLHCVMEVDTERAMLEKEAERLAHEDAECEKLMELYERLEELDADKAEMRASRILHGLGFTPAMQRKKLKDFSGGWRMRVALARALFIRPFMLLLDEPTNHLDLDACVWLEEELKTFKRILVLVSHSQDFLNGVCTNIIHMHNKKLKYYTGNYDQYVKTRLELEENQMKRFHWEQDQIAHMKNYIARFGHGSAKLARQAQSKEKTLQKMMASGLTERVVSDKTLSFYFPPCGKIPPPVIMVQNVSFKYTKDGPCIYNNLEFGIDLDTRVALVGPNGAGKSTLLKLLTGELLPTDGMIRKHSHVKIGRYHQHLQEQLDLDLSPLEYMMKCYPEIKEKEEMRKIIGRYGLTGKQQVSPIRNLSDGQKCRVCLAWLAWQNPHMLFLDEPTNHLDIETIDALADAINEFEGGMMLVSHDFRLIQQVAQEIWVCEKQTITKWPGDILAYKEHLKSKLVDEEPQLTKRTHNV
# UniProt O95870: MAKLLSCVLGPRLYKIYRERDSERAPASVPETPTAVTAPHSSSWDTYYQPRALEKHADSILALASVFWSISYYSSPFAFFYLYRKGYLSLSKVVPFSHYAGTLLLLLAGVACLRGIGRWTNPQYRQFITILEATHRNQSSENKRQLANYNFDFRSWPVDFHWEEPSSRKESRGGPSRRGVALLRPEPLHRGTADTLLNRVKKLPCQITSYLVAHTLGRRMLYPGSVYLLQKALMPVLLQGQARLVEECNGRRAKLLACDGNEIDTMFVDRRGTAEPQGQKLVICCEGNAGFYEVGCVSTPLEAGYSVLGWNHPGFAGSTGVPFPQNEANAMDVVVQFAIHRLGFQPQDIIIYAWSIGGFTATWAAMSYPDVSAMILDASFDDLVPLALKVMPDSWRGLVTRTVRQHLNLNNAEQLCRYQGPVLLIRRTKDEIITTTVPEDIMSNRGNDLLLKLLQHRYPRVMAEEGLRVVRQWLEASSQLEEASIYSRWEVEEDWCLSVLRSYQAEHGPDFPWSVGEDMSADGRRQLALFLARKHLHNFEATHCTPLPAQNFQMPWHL
# UniProt Q9BZC7, 1362-1382: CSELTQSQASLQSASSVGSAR
# The other results are listed elsewhere or left out. The data scatter; read single values as rough.
# Compound: ClCC(=O)N[C@H]1CCCc2ccccc12
# Test: log2 mean competition ratio of IA-DTB cysteine labelling (DMSO/compound) (log2 ratio); higher = stronger cysteine engagement by compound
# Conditions: 50 µM; treatment time: 4 h; cell line lysate: HEK293T
# Protocol: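 IA-DTB competitive cysteine chemoproteomics in HEK293T RIPA lysate. Lysates were treated with compound 29 or 30 at 50 or 200 µM for 4 h, then IA-DTB (500 µM, 1 h), trypsin-digested, NeutrAvidin-enriched and analysed by diaPASEF. Competition ratio = intensity DMSO / intensity compound (n=4 treated, n=64 DMSO); binding: mean log2 CR ≥ 1 and p ≤ 0.05 plus QC filters. Target is the cysteine site.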
row,Target,log2 mean competition ratio
1,ABRAXAS2 C237 (UniProt Q15018),-0.317
2,AARS2 C904 (UniProt Q5JTZ9),-0.113
3,ACAT1 C119,-0.00712
4,ABCB8 C323 (UniProt Q9NUT2),0.395
5,ABHD6 C134 (UniProt Q9BV23),-0.358
6,ABCF1 C655,-0.268
7,ACADS C151 (UniProt P16219),0.56
8,ACAP2 C53 (UniProt Q15057),0.393
9,ABHD5 C299 (UniProt Q8WTS1),0.0636
10,ABCB1 C431 (UniProt P08183),-0.235
11,AAMP C428 (UniProt Q13685),-0.177
12,ACACA C407 (UniProt Q13085),0.0263
13,ACAA1 C218 (UniProt P09110),0.275
14,ACADS C246 (UniProt P16219),-0.0307
15,ACADVL C237 (UniProt P49748),0.197
16,AASDH C13 (UniProt Q4L235),0.0738
17,ACAD8 C251 (UniProt Q9UKU7),-0.128
18,ABCF2 C586 (UniProt Q9UG63),-0.0326
19,ABHD16A C416 (UniProt O95870),-0.144
20,ABR C667 (UniProt Q12979),-0.0979

# Same assay, conditions: 200 µM; treatment time: 4 h; cell line lysate: HEK293T
row,Target,log2 mean competition ratio
1,ABRAXAS2 C237 (UniProt Q15018),-0.277
2,AARS2 C904 (UniProt Q5JTZ9),-0.197
3,ACAT1 C119,0.512
4,ABCB8 C323 (UniProt Q9NUT2),-0.0646
5,ABHD6 C134 (UniProt Q9BV23),0.0785
6,ABCF1 C655,-0.194
7,ACADS C151 (UniProt P16219),-0.0669
8,ACAP2 C53 (UniProt Q15057),-0.0666
9,ABCA2 C1362 (UniProt Q9BZC7),-0.00875
10,ABHD5 C299 (UniProt Q8WTS1),0.0412
11,ABCB1 C431 (UniProt P08183),-0.286
12,AAMP C428 (UniProt Q13685),-0.229
13,ACACA C407 (UniProt Q13085),-0.338
14,ACAA1 C218 (UniProt P09110),-0.311
15,ACADS C246 (UniProt P16219),0.0662
16,ACADVL C237 (UniProt P49748),-0.132
17,AASDH C13 (UniProt Q4L235),-0.0394
18,ACAD8 C251 (UniProt Q9UKU7),-0.0568
19,ABCF2 C586 (UniProt Q9UG63),-0.252
20,ABHD16A C416 (UniProt O95870),0.248
21,ABR C667 (UniProt Q12979),-0.04
